Measured values as given in US20180271923A1, “COMPOSITION FOR PREVENTING OR TREATING MENOPAUSAL DISORDERS, CONTAINING TETRAGONIA TETRAGONOIDES (PALL.) KUNTZE EXTRACT” (Korea Institute of Oriental Medicine, priority 2015, published 2018).
Marks after values point to notes of the source that are not given here.

Test system: ovariectomized rats
Assay: Evaluation on menopause inducement in ovariectomized rats (weight of uterus, serum 17β-estradiol by RIA kit)
Assay type: in vivo
Details: n = 12, means ± SD
Method: Rats were ovariectomized to induce menopause, and weight of uterus and serum levels of 17β-estradiol that is a kind of female hormones were measured to determine whether menopause was induced in the rats. Specifically, the rats were sacrificed, and then their uteri were removed and weighed. A serum concentration of 17β-estradiol was measured with an RIA kit (Linco Research Inc.).

## C[C@]12CC[C@@H]3c4ccc(O)cc4CC[C@H]3[C@@H]1CC[C@@H]2O [Positive-control, 17β-estradiol]
  Serum levels of 17β-estradiol: 7.5 ± 1.2^a pg/ml
